The values below come from article PMC9843532.

Sequences of proteins named here, by UniProt entry; tags and fusion partners are left off.
UniProt Q9UQQ2: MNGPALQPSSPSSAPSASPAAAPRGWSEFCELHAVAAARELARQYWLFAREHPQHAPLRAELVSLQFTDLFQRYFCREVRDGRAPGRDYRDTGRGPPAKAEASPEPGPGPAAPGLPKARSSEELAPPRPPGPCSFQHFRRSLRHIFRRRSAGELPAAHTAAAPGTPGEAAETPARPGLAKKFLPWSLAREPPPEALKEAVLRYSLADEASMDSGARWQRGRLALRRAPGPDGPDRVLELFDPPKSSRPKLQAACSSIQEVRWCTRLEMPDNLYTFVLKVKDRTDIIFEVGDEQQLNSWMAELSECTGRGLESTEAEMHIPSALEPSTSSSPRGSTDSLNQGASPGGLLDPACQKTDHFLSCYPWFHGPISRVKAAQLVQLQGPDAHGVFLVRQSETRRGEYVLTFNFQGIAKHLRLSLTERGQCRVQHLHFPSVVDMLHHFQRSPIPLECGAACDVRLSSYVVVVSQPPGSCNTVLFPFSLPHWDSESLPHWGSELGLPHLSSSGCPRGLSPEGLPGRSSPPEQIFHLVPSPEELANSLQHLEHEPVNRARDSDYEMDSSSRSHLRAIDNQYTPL
UniProt P63104: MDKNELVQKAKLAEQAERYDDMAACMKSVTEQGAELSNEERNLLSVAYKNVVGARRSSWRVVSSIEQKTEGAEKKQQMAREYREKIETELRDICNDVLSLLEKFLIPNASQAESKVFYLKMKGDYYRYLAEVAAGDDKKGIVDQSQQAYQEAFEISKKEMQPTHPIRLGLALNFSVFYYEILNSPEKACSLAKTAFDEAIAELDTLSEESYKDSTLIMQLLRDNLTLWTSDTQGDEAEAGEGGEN

No constants are given. Whether binding was seen depends on the method and setting. In cells and extracts the contact can be indirect. Some binding calls cover weakened binding; strength is not graded here.

Test [1] has as its target LNK (human (endogenous in primary erythroblasts)) (UniProt Q9UQQ2). Put plainly: co-IP; endogenous proteins in lysates of human primary erythroblasts after DMSO or 0.5 μM ACY-1215 exposure; IP buffer with 1% NP40, 150 mM NaCl, 5 mM EDTA, Tris HCl pH 8; antibody against 14-3-3ζ or LNK (2 μg) overnight at 4°C, μMACS Protein G Microbeads; partner detected by immunoblot. On the technique in general: A western blot detects proteins with antibodies after separation by electrophoresis.

Test [2] addresses 14‐3‐3ζ (human (endogenous in primary erythroblasts)) (UniProt P63104). The test is described as above.

For 14‐3‐3ζ (from UniProt P63104 1-245), the binding result in test [1] is on record as “binds”.

Turning to LNK (from UniProt Q9UQQ2 1-575), the binding entry in test [2] is recorded as “binds”.
